Assay [1] deals with T1, Myc-tagged OLIG2^S147A (mouse) (UniProt Q9EQW6).
T1 sequence: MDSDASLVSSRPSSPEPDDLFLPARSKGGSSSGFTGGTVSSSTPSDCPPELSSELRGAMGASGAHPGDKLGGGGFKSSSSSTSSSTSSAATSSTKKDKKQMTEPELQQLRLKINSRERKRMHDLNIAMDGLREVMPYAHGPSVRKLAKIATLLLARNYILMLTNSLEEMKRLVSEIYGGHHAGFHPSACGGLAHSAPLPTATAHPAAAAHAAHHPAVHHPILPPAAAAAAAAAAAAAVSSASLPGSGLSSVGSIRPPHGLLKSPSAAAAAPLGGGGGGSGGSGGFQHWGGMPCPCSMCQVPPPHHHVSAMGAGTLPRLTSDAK
Nature of the assay: co-IP; Cos-7 cells cotransfected; lysate (50 mM Tris-HCl pH 7.5, 150 mM NaCl, 1% NP-40, 0.5% deoxycholate) treated with DNase1; IP with rabbit anti-Myc on protein G beads at 4°C, washes incl. 500 mM NaCl; WB with anti-V5.

Chains of the proteins cited; added tags and fusions are not shown.
UniProt Q04888: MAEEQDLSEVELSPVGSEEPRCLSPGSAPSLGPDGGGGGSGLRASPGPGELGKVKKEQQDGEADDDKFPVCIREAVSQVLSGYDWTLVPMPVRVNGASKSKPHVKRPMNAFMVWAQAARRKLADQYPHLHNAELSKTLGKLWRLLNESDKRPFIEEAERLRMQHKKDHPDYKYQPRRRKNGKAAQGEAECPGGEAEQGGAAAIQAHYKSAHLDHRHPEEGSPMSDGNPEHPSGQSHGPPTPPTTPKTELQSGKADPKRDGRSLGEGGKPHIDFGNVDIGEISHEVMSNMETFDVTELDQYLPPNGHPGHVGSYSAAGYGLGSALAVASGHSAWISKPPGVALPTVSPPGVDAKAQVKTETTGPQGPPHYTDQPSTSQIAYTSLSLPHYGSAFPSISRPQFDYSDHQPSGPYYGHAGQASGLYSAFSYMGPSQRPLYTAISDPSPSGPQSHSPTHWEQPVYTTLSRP

The target of assay [2] is T2, Myc-tagged OLIG2^WT (mouse) (UniProt Q9EQW6).
T2 sequence: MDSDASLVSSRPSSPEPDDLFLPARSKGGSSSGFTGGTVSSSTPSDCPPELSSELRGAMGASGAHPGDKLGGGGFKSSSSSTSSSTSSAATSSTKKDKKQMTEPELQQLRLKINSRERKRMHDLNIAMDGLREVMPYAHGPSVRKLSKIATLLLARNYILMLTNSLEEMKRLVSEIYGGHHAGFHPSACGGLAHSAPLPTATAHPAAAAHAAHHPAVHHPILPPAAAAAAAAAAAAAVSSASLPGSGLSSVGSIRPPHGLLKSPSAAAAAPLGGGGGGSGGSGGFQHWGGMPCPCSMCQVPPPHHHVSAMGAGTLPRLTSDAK
Described as above.

The target of assay [3] is T3, Myc-tagged OLIG2^WT (mouse), Q9EQW6.
T3 chain: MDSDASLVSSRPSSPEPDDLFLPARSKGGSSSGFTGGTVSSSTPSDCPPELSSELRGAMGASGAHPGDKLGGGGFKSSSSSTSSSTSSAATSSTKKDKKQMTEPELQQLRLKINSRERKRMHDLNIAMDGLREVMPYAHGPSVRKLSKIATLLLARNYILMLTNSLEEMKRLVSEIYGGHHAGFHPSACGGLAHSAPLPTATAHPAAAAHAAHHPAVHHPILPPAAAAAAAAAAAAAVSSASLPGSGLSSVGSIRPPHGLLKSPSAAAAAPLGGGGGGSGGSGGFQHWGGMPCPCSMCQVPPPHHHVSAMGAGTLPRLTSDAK
Described as above. The conditions noted are these: remark: other sources report otherwise.

Assay [4] concerns the target T4, OLIG2^WT, mammalian two-hybrid fusion (mouse), Q9EQW6.
T4 chain: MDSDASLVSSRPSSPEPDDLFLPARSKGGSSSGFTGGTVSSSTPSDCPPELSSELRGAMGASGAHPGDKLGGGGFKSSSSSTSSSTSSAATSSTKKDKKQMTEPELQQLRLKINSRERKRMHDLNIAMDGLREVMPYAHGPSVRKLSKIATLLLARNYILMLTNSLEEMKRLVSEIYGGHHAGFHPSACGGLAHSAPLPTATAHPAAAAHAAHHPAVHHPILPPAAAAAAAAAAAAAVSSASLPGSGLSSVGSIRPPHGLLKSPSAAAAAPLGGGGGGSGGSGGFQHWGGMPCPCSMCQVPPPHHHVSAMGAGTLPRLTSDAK
Nature of the assay: two-hybrid; mammalian two-hybrid (CheckMate System, Promega) in Cos-7 cells, firefly luciferase normalised to Renilla; also with cotransfected catalytic subunit of PKA or dnPKA. The conditions noted are these: remark: other sources report otherwise.

No constants are given. Whether binding was seen depends on the method and setting. For some of these results: Binding seen in cells or lysates may run through a third protein. Some binding calls cover weakened binding; strength is not graded here. Sequences can lack the tags named with a protein.

“V5-tagged SOX10 (from UniProt Q04888 1-466)”: the binding entry in assay [1] and in assay [2] was “binds” throughout.

B1: MASH1 (protein, UniProt Q02067 1-231)
chain: MESSGKMESGAGQQPQPPQPFLPPAACFFATAAAAAAAAAAAAQSAQQQQPQAPPQQAPQLSPVADSQPSGGGHKSAAKQVKRQRSSSPELMRCKRRLNFSGFGYSLPQQQPAAVARRNERERNRVKLVNLGFATLREHVPNGAANKKMSKVETLRSAVEYIRALQQLLDEHDAVSAAFQAGVLSPTISPNYSNDLNSMAGSPVSSYSSDEGSYDPLSPEEQELLDFTNWF
B1: the binding entry in assay [1] and in assay [2] was “binds” each time.

B2: NKX2.2 (protein, UniProt P42586 1-273)
chain: MSLTNTKTGFSVKDILDLPDTNDEDGSVAEGPEEESEGPEPAKRAGPLGQGALDAVQSLPLKSPFYDSSDNPYTRWLASTEGLQYSLHGLAASAPPQDSSSKSPEPSADESPDNDKETQGGGGDAGKKRKRRVLFSKAQTYELERRFRQQRYLSAPEREHLASLIRLTPTQVKIWFQNHRYKMKRARAEKGMEVTPLPSPRRVAVPVLVRDGKPCHALKAQDLAAATFQAGIPFSAYSAQSLQHMQYNAQYSSASTPQYPTAHPLVQAQQWTW
On to B2, for which the binding entry in assay [1] and in assay [2] was “binds” each time.

B3: V5-tagged OLIG1 (protein, UniProt Q9JKN5 1-260)
chain: MYYAISQARVNAAPATMLRPQRPGDVQLGASLYELVGYRQPPISSSSSSSSSTASLLPKPAREKAEAPLAEPRGPAPESGGARADAKEEQQQQQLRRKINSRERKRMQDLNLAMDALREVILPYSAAHCQGAPGRKLSKIATLLLARNYILLLGSSLQELRRALGDGAGPAAPRLLLAGLPLLAAAPGSVLLAPGAVGPPETLRPTKYLSLALDEPPCGQFSLPAGGAGSPGLCSCAVCKFPHLVPAGLGLAAVQAQFSK
With B3, the binding entry in assay [1] and in assay [2] was “binds” in each case.

B4: V5-tagged OLIG2, Q9EQW6 1-323 (protein)
chain: MDSDASLVSSRPSSPEPDDLFLPARSKGGSSSGFTGGTVSSSTPSDCPPELSSELRGAMGASGAHPGDKLGGGGFKSSSSSTSSSTSSAATSSTKKDKKQMTEPELQQLRLKINSRERKRMHDLNIAMDGLREVMPYAHGPSVRKLSKIATLLLARNYILMLTNSLEEMKRLVSEIYGGHHAGFHPSACGGLAHSAPLPTATAHPAAAAHAAHHPAVHHPILPPAAAAAAAAAAAAAVSSASLPGSGLSSVGSIRPPHGLLKSPSAAAAAPLGGGGGGSGGSGGFQHWGGMPCPCSMCQVPPPHHHVSAMGAGTLPRLTSDAK
Take B4: the binding entry in assay [3] is reported as “binds”.

B5: OLIG2^WT, mammalian two-hybrid fusion, Q9EQW6 1-323 (protein)
chain: MDSDASLVSSRPSSPEPDDLFLPARSKGGSSSGFTGGTVSSSTPSDCPPELSSELRGAMGASGAHPGDKLGGGGFKSSSSSTSSSTSSAATSSTKKDKKQMTEPELQQLRLKINSRERKRMHDLNIAMDGLREVMPYAHGPSVRKLSKIATLLLARNYILMLTNSLEEMKRLVSEIYGGHHAGFHPSACGGLAHSAPLPTATAHPAAAAHAAHHPAVHHPILPPAAAAAAAAAAAAAVSSASLPGSGLSSVGSIRPPHGLLKSPSAAAAAPLGGGGGGSGGSGGFQHWGGMPCPCSMCQVPPPHHHVSAMGAGTLPRLTSDAK
Take B5: the binding result in assay [4] was “binds”.
